# Measured values reported in PubChem BioAssay AID1508600 (Functional Genomics Laboratory (NCATS/FGL), 2020).
# The campaign covered roughly 53,000 sequences. About 3,700 (7%) were called active.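 The calls were made as follows: active = gene knockdowns whose robust z-score for IL-1 alpha signal is at least 2 or at most -2, so actives lie on both sides; inactive = the rest.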 The list shows a part of the results.
# Experiment: Components of the Cytosolic LPS Sensing Pathway: Gene Identification via Genome-wide siRNA Screen;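 also: robust z of the log signal after scaling to non-targeting control siRNA wells of the plate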
# Details: RAW264.7 macrophages, IL-1a HTRF, actives lie on both sides, screened at 100 nM (by protocol), cells primed 5 h with Pam3CSK4 first
# Outline: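 RAW264.7 mouse macrophages reverse-transfected with single siRNAs (100 nM final) for 48h, primed with Pam3CSK4 for 5 hours, then transfected with LipidA for 24 hour. Supernatant IL-1a read by HTRF; values normalized to negative-control median, log-transformed robust z-scores.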
row,Sequence,z-score
1,CCUUGUCAUUCCAUACAAUTT against Rgs5,inactive: 0.2
2,GGUUUGGUGUCAGAUGUCATT against Olfr1182,active: -2.32
3,GCACAACACAAUCUAUAUGTT against Reps2,inactive: -0.0604
4,GGCUGGAAAAAAUUUUGUCTT against Gemin2,inactive: 0.266
5,GGUUCACCUGUCAAGUGGATT against Hfe,inactive: 0.655
6,GGCCAUAGAUAUUCAAGGUTT against Olfr218,inactive: 0.293
7,CGAGAUCACGAGAUCGGUUTT against Prdm4,inactive: 1.89
8,GGUACAGGGAAGGAUCGUGTT against Tnrc18,inactive: -0.654
9,GGAGAAAGGCCUUUUCUACTT against Olfr535,inactive: 1.18
10,GGAAGUUUGGUGGUCCAGUTT against Haus8,inactive: -1.7
11,GGAUCUAUGAAGCAAAAAATT against Rasa2,inactive: -1.41
12,GGCCAUUAGAAGCAAGAUUTT against Akr1c14,inactive: 0.331
13,GCGAAUUGACAACUCCCUCTT against Slc25a39,inactive: -0.605
14,GGACAUUGGAUUCUUCAUCTT against Grap2,inactive: 1.16
15,GGCGGAUCAAACUCGGAUUTT against Pou3f2,inactive: 0.737
16,GGGAUCCGUAAAGAAGAAATT against Dnaaf1,inactive: 0.683
17,GGAUAGCUCUAUUAUCUCUTT against Serpinb3a,inactive: 1.24
18,GCCAGGAAUCACAAGAGCUTT against Mtg1,inactive: 0.571
19,CCAUUGUGCAUUAAACAUUTT against Mrpl35,inactive: 0.847
20,GGAACUGGCAAGUUAGUUUTT against 3010003L21Rik,inactive: 1.31
21,GUUCACCGACAAGAGCUGCTT against Ccl26,inactive: 0.139
22,GGUGAACCUCAAUAAUAUCTT against Tmod4,inactive: 0.274

row,Sequence,z-score
1,GGUAGCAUUAUUUGUCCUATT against Pcdh15,inactive: 0.675
2,GGAGAACCAGAUCCUGAUCTT against Mypop,inactive: 0.511
3,UAGAAUCCAUGCAAGGGCGTT against Prss41,inactive: 1.18
4,GCUCCUCUCCAAGGUCAUUTT against Olfr96,inactive: 0.652
5,CCGUAGUUAUGAUACCAAUTT against Cyp3a25,inactive: 0.511
6,GGAGAAUGUACAAAGGCUUTT against Slc7a13,inactive: 0.369
7,CCCUGUACCUAGCUCAAGATT against Ecel1,inactive: -0.693
8,GCUAGAUCUUUCAUCCAACTT against Lrtm1,inactive: 1.2
9,GCAACAACCACCAAAUCUATT against Prol1,inactive: -1.53
10,CCCUGGUCAAUCUUUUCCGTT against Tmem39a,inactive: -0.0939
11,GGCACCCAUUCCUAAAAUGTT against Hmgn5,inactive: -0.929
12,CCAAUUACGGAGAUUGGAATT against Tspan6,inactive: -0.803
13,GGCGAUUCAAGGAGUUCCUTT against Mcm5,inactive: 0.939
14,GGAUGAUGUCAGCACUUUUTT against Taf8,inactive: -0.508
15,GGCCUCCAAUAAAGCUCAGTT against Ttc28,active: -2.07
16,GGCUCUCAGUGCCAUCAUUTT against Stk40,inactive: -0.858
17,GGGAUAAACCUUCGCCAUATT against Fkrp,inactive: 0.748
18,GCCUAAUUAUAGUCACUCUTT against Olfr1089,inactive: 0.15
19,GGUCUGUGGAUUUAAACUUTT against Sestd1,inactive: 0.931
20,GCGUGUUACCAUAAAACUUTT against Rubcn,inactive: 0.56
21,CCAGCCAACGAGAACUUUUTT against Szt2,inactive: 0.325
22,GGACCAGAAAAUUCACUUUTT against Gdap2,inactive: 0.761

row,Sequence,z-score
1,GGGUCCCGAUCCAUAAUUGTT against Itpka,inactive: 0.0326
2,GGCUGUGGAAUGACACCAATT against Sars2,inactive: -1.01
3,GGCAAAAUGCAUAGAGAUATT against Map4k5,inactive: -0.884
4,CGAAGUGGUUACAGAAUCUTT against A2ml1,inactive: 0.611
5,CCGCUCUUUUACAGCUGGATT against Rsl1d1,inactive: 1.99
6,GGAUCCAAAGAGUAUUGGATT against Olfr521,inactive: 0.345
7,GGUGAUGCAGCAGAUCAUUTT against Nfyc,inactive: 0.0427
8,GGUCUCUUUCAACAAAAAUTT against Sec22a,inactive: -1.81
9,GGCAGUCUCAGGUUAUCUCTT against Zfp445,inactive: 0.406
10,GGACCAUCUCUUAUGUCCATT against Olfr54,inactive: 0.85
11,GGAAAUCAGCAAAGUAAAATT against Golga1,inactive: -1.1
12,GGUGGCCUUUCUUUGUUUATT against BC049762,inactive: 0.821
13,GGUUUGCCACCUGUGUGUUTT against Rasgef1b,inactive: -0.209
14,GCCUAUCGAGGAGACACAUTT against Edil3,inactive: -0.178
15,GCGUGAGAGAUACCGCCAUTT against Gnai2,inactive: -0.847
16,GGGAGAGGCACAAAGCAUATT against Ubxn10,inactive: -0.32
17,GCCUUUGUAGGUUCAAGUGTT against Zfp932,inactive: 1.31
18,CGUCAACUCCGACAUCUACTT against Tcerg1,inactive: -0.631
19,GGAAAAGGUUUUCUACAACTT against Ephx1,inactive: -1.11
20,GGUGGCACAUAAGAAAUCCTT against Trim66,inactive: -1.61
21,GACCCGCUGCUGCUCAAAUTT against Cdc42ep5,inactive: -0.178
22,GCUCAGAAUAUCACAUCAATT against Ppm1b,inactive: -1.59

row,Sequence,z-score
1,GGUGAUACUAACAGCGGAGTT against Sort1,inactive: 0.359
2,CUCAAAAUCUGGUGAUAAATT against Adam34,active: 2.66
3,GGACGACAGUGCAAAGCAUTT against Usb1,active: -2.33
4,GGUCCCAGGUACAACAAAATT against Vmn1r73,inactive: 0.165
5,GGCCUAUUCACAGGUGUGATT against Tspear,inactive: -0.253
6,GCCUUUUCUACCUACACAATT against Paqr4,inactive: 0.865
7,GCUUGGUGGAAAUUUCUUGTT against Rwdd2b,inactive: 0.355
8,GGAUUCUAUGAGAAAGUUCTT against Abca7,inactive: -0.00468
9,GCCGCCUAAUGUUGACUUUTT against Usp37,inactive: -0.281
10,GGCAAAUUUUUGGAGAUGUTT against Hspa4,inactive: 0.931
11,GGACUUGUAUUAGCAGGAATT against Pparg,inactive: 1.93
12,GGACAGAUUCUCUGUGAAUTT against Cryab,inactive: 0.588
13,CCACUACGAAAUCAUUUCCTT against Car9,inactive: -0.153
14,GCAAUUCCACGUAUGGAUUTT against Olfr652,inactive: 0.336
15,GGCUGGAGAAUUCUAGAAUTT against Lao1,inactive: 0.666
16,GGACUGACACUAUAAACUCTT against Ndufb2,inactive: 1.75
17,CCGCUCUACCACAGCCUUATT against Rnf145,inactive: 0.646
18,GUGGGAUUCCAGUAGAAAUTT against Olfr1116,inactive: 0.559
19,GCUUUUAGGCACCUGUGCUTT against Wfdc21,inactive: -1.26
20,GGCAAUGAUGAUCUCCUCUTT against Htra3,inactive: 0.434
21,GGAAGCUUCGAGGAUGAUGTT against Snx33,inactive: -0.656
22,GGUAGUAUCCCAGUUCCAUTT against Pgap4,inactive: 1.08

row,Sequence,z-score
1,CCAGAAGUAUAGGACGCACTT against Pxdn,inactive: 0.115
2,GCACUUACUCAUUAAUCACTT against Rnf20,active: -2.56
3,CCUAAUAGAUGAAUCCAAUTT against Srgn,inactive: 0.773
4,GGUAAUAUUUCGUGCUUUATT against Lamb1,active: 2.1
5,GCAGAUGCUAUUUAUGCAGTT against Prpf6,inactive: -1.23
6,GCAAGUACCUAGUGGUGGATT against Tssk2,inactive: -0.28
7,GGAAAGAGUAAGAUUUUGATT against Dnah11,inactive: -0.292
8,GCUCACCUGAGUCAAUGAUTT against Nr5a2,active: -2.25
9,GCUACGCUAUUUUUGGCUUTT against Clec12a,inactive: 0.554
10,GCUCUAAACAUGAUUCAAGTT against Akap9,inactive: 1.17
11,GGGAUAUGUUUCUUGUAGGTT against Vmn1r14,inactive: -1.07
12,GGUCAGACCUGUUGAUAGATT against Nr3c1,inactive: 0.34
13,GGACCCUGUUCUUUGCUUATT against Srxn1,inactive: 0.255
14,CGGCUACUAUGUGAAACUGTT against Jph1,inactive: 0.236
15,CCCUUUUUAAUCGUCCCACTT against Nrep,inactive: -0.835
16,GGUGAUAAAGUCAUUCCACTT against Adh1,inactive: 0.759
17,GGAUAAACUUCCAUCUUUCTT against Car14,inactive: 0.0577
18,UCAAGAAAGGUCAUGUCAGTT against AY702102,inactive: -1.95
19,CCGUAAGGAUAUUCUCUAGTT against Pelo,inactive: -0.115

# Some of the entries above, reformatted.
row | Sequence | z-score
2 | GCACUUACUCAUUAAUCACTT against Rnf20 | active: -2.56
5 | GCAGAUGCUAUUUAUGCAGTT against Prpf6 | inactive: -1.23
11 | GGGAUAUGUUUCUUGUAGGTT against Vmn1r14 | inactive: -1.07
18 | UCAAGAAAGGUCAUGUCAGTT against AY702102 | inactive: -1.95
19 | CCGUAAGGAUAUUCUCUAGTT against Pelo | inactive: -0.115
